From article PMC5324674
These are yes or no findings as the source states them, for the method shown. Sequences can lack the tags named with a protein.

Target: T1, NAR1, ProQuest two‐hybrid fusion (Arabidopsis thaliana) (UniProt Q94CL6)
T1 sequence: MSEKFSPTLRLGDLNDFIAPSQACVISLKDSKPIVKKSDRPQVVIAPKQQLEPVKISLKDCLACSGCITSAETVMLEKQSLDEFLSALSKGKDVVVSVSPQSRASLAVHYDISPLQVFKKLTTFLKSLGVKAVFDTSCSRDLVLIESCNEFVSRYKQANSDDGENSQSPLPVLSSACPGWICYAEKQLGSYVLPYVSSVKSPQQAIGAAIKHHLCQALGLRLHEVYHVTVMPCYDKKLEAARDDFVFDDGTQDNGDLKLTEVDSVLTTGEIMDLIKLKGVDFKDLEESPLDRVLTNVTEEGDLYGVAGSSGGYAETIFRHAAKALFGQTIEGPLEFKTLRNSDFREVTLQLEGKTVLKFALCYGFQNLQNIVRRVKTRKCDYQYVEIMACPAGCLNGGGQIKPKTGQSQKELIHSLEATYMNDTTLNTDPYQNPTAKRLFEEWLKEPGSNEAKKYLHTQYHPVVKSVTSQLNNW
Assay: two-hybrid; Invitrogen ProQuest Two-Hybrid System with Gateway Technology; binary tests of BD and AD fusions; growth on dropout histidine medium with 100 mM 3-AT

- binding: no binding
B1: Nucleotide‐Binding Protein 35 kDa (NBP35), full‐length, ProQuest two‐hybrid fusion (protein, UniProt Q8H1Q2 1-350)
chain: MENGDIPEDANEHCPGPQSESAGKSDSCAGCPNQEACATAPKGPDPDLVAIAERMSTVKHKILVLSGKGGVGKSTFSAQLSFALAGMDHQVGLMDIDICGPSIPKMLGLEGQEIHQSNLGWSPVYVEDNLGVMSIGFMLPNSDEAVIWRGPRKNGLIKQFLKDVYWGEIDYLVVDAPPGTSDEHISIVQYLLPTGIDGAIIVTTPQEVSLIDVRKEVSFCKKVGVPVLGVVENMSGLSQPLKDVKFMKLATETGSSINVTEDVIACLRKNAPELLDIVACSEVFDSSGGGAERMCREMGVPFLGKVPMDPQLCKAAEQGKSCFEDNKCLISAPALKSIIQKVVPSTVMTE
